Experimental data published in PubChem BioAssay AID256 (DTP/NCI, 2004).
The list is a part of this screen's results and no random one: it is rich in T/C values a quarter to a half above the control, in often repeated tests (any T/C) and in doses without a T/C. Other doses and runs of a compound stand elsewhere. T/C: endpoint of the treated group in % of that of the vehicle group. Some doses have a count of surviving animals in place of a T/C: the source holds a T/C of zero for them, seemingly a mark for toxic or unscored doses. Some doses without a T/C left all or most animals alive at the check, yet need not have been tolerated: survival well below the control is almost never listed, so the zero probably covers shortened survival too. Counts of survivors are from the toxicity check (mostly the fifth day) where no day follows; animals may have died later. Schedules are NCI's codes, taken here to give the interval after Q, in days (D) or hours (H), and the number of doses after X. Some entries hold several experiments; the results are listed from low to high. For survival time, this PubChem deposit counts one and a half times the control or more as active, and values a quarter to a half above the control carry no call in these data; other NCI protocols may use other cut-offs. Some T/C values are followed by the survivors on the day toxicity was checked, most often the fifth; where none is given, no animal had died by that day. Additions like (4×) give the number of equal values in this list.

System: CD2F1 mice, L1210 leukemia ip, survival T/C
Experiment: NCI In Vivo Anticancer Drug Screen. Data for tumor model L1210 Leukemia (intraperitoneal) in CD2F1 (CDF1) mice
Settings: T/C endpoint: median survival time, higher T/C = longer survival
Method in brief: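 Ratio T/C, where T is the treated-group value and C the vehicle-dosed control value, from mice implanted with a transplantable tumor.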

O=P1(N(CCCl)CCCl)NCCCO1 (stereo not given)
T/C (dose: 50.0 mg/kg/injection, schedule: Q01DX001 (ip), vehicle: water, evaluated on day 5): 146 % of control | T/C (dose: 50.0 mg/kg/injection, schedule: Q01DX001 (ip), vehicle: water, evaluated on day 45): 144 % of control | T/C (dose: 60.0 mg/kg/injection, schedule: Q01DX009 (ip), vehicle: water, evaluated on day 5): 145 % of control | T/C (dose: 60.0 mg/kg/injection, schedule: Q01DX009 (ip), vehicle: water, evaluated on day 23): 145 % of control | T/C (dose: 62.5 mg/kg/injection, schedule: Q01DX001 (ip), vehicle: saline): 113 (2×), 117, 119, 128 % of control | T/C (dose: 62.5 mg/kg/injection, schedule: Q01DX001 (ip), vehicle: water): 131 and 144 % of control | T/C (dose: 64.8 mg/kg/injection, schedule: Q01DX001 (iv), vehicle: saline): 134 % of control | T/C (dose: 75.0 mg/kg/injection, schedule: Q10HX004 (ip), vehicle: saline): 148 % of control | T/C (dose: 80.0 mg/kg/injection, schedule: Q01DX005 (ip), vehicle: saline, evaluated on day 30): 155, 169, 174, 180, 182, 186 (2×), 188 (3×), 190, 192, 193, 196, 197 (4×), 202 (2×), 204, 207, 213 (2×), 216, 219 % of control | T/C (dose: 80.0 mg/kg/injection, schedule: Q01DX005 (ip), vehicle: saline, evaluated on day 35): 222 % of control | T/C (dose: 80.0 mg/kg/injection, schedule: Q01DX005 (ip), vehicle: saline, evaluated on day 60): 181 and 207 % of control | survivor count (dose: 80.0 mg/kg/injection, schedule: Q01DX005 (ip), vehicle: saline): 5 of 6 | T/C (dose: 80.0 mg/kg/injection, schedule: Q01DX009 (ip), vehicle: saline, evaluated on day 30): 108 (2×), 111, 113, 125, 153, 162, 179, 185, 197, 200, 207, 208, 211, 214, 216 (2×), 219 (2×), 222, 223, 228, 232, 238, 244, 246, 265 % of control | T/C (dose: 80.0 mg/kg/injection, schedule: Q01DX009 (ip), vehicle: saline, evaluated on day 35): 195 % of control | T/C (dose: 80.0 mg/kg/injection, schedule: Q01DX009 (ip), vehicle: saline, evaluated on day 60): 204 and 219 % of control | T/C (dose: 80.0 mg/kg/injection, schedule: Q01DX009 (ip), vehicle: water, evaluated on day 5): 125 % of control | T/C (dose: 80.0 mg/kg/injection, schedule: Q01DX009 (ip), vehicle: water, evaluated on day 23): 125 % of control | T/C (dose: 100.0 mg/kg/injection, schedule: Q01DX001 (ip), vehicle: saline, evaluated on day 6): 131 and 137 % of control | T/C (dose: 100.0 mg/kg/injection, schedule: Q01DX001 (ip), vehicle: saline, evaluated on day 11): 131 and 137 % of control | T/C (dose: 100.0 mg/kg/injection, schedule: Q01DX001 (ip), vehicle: saline, evaluated on day 20): 144 % of control | T/C (dose: 100.0 mg/kg/injection, schedule: Q01DX001 (ip), vehicle: saline, evaluated on day 30): 139, 140, 143 (2×), 145, 147, 148, 148 [5 of 6 alive], 149, 150 (2×), 153, 154 (3×), 156 (2×), 158 (2×), 160 (2×), 161 (2×), 164, 165, 168 (2×), 172, 175 % of control | T/C (dose: 100.0 mg/kg/injection, schedule: Q01DX001 (ip), vehicle: saline, evaluated on day 35): 151 % of control | T/C (dose: 100.0 mg/kg/injection, schedule: Q01DX001 (ip), vehicle: saline, evaluated on day 60): 144 and 171 % of control | T/C (dose: 125.0 mg/kg/injection, schedule: Q01DX001 (ip), vehicle: saline): 130, 132, 150, 159, 164 % of control | T/C (dose: 125.0 mg/kg/injection, schedule: Q01DX001 (ip), vehicle: water): 148 % of control | T/C (dose: 160.0 mg/kg/injection, schedule: Q01DX005 (ip), vehicle: saline, evaluated on day 30): 90, 102, 107, 109, 111, 118, 120 (2×), 123 (3×), 125, 138, 158, 160, 164, 172, 185, 188 [5 of 6 alive], 190, 204, 301, 370 (2×), 375 % of control (2×) | T/C (dose: 160.0 mg/kg/injection, schedule: Q01DX005 (ip), vehicle: saline, evaluated on day 35): 197 % of control | T/C (dose: 160.0 mg/kg/injection, schedule: Q01DX005 (ip), vehicle: saline, evaluated on day 60): 180 and 198 % of control | survivor count (dose: 160.0 mg/kg/injection, schedule: Q01DX005 (ip), vehicle: saline): 4 of 6 | T/C (dose: 160.0 mg/kg/injection, schedule: Q01DX009 (ip), vehicle: saline, evaluated on day 30): 88, 89, 91, 95, 98 [5 of 6 alive], 102, 103 (2×), 104, 106, 112 [5 of 6 alive], 113, 114 (3×), 116, 120, 123, 125, 132 (2×), 139, 141, 146, 148, 149, 158 % of control | T/C (dose: 160.0 mg/kg/injection, schedule: Q01DX009 (ip), vehicle: saline, evaluated on day 35): 127 % of control | T/C (dose: 160.0 mg/kg/injection, schedule: Q01DX009 (ip), vehicle: saline, evaluated on day 60): 124 and 134 % of control | T/C (dose: 175.0 mg/kg/injection, schedule: Q01DX001 (ip), vehicle: saline): 189 (2×), 194, 204, 219, 243 % of control | T/C (dose: 200.0 mg/kg/injection, schedule: Q01DX001 (ip), vehicle: saline, evaluated on day 5): 215 and 229 % of control | T/C (dose: 200.0 mg/kg/injection, schedule: Q01DX001 (ip), vehicle: saline, evaluated on day 6): 173 and 176 % of control | T/C (dose: 200.0 mg/kg/injection, schedule: Q01DX001 (ip), vehicle: saline, evaluated on day 11): 173 and 176 % of control | T/C (dose: 200.0 mg/kg/injection, schedule: Q01DX001 (ip), vehicle: saline, evaluated on day 20): 144 % of control | T/C (dose: 200.0 mg/kg/injection, schedule: Q01DX001 (ip), vehicle: saline, evaluated on day 30): 156, 174, 176, 178, 180, 186 (2×), 191 (2×), 193 (2×), 195, 200, 201, 203 (2×), 204 (2×), 209, 222, 225 (2×), 232, 240, 271, 320, 352, 370 % of control (2×) | T/C (dose: 200.0 mg/kg/injection, schedule: Q01DX001 (ip), vehicle: saline, evaluated on day 35): 188 % of control | T/C (dose: 200.0 mg/kg/injection, schedule: Q01DX001 (ip), vehicle: saline, evaluated on day 60): 148, 178, 292 % of control | T/C (dose: 200.0 mg/kg/injection, schedule: Q01DX001 (ip), vehicle: water, evaluated on day 5): 132 % of control | T/C (dose: 200.0 mg/kg/injection, schedule: Q01DX001 (ip), vehicle: water, evaluated on day 45): 127 % of control | T/C (dose: 250.0 mg/kg/injection, schedule: Q01DX001 (ip), vehicle: saline, evaluated on day 30): 151, 163, 168, 222, 357, 410 % of control [5 of 6 alive] | T/C (dose: 250.0 mg/kg/injection, schedule: Q01DX001 (ip), vehicle: saline, evaluated on day 60): 160 % of control | T/C (dose: 265.0 mg/kg/injection, schedule: Q01DX001 (ip), vehicle: saline): 223, 523, 542 (2×), 548, 576 % of control | T/C (dose: 300.0 mg/kg/injection, schedule: Q01DX001 (ip), vehicle: saline, evaluated on day 5): 200, 253, 323 % of control | T/C (dose: 300.0 mg/kg/injection, schedule: Q01DX001 (ip), vehicle: saline, evaluated on day 6): 112, 188, 208 % of control | T/C (dose: 300.0 mg/kg/injection, schedule: Q01DX001 (ip), vehicle: saline, evaluated on day 11): 188 and 208 % of control | T/C (dose: 400.0 mg/kg/injection, schedule: Q01DX001 (ip), vehicle: saline, evaluated on day 6): 200 and 206 % of control | T/C (dose: 400.0 mg/kg/injection, schedule: Q01DX001 (ip), vehicle: saline, evaluated on day 11): 200 and 206 % of control | T/C (dose: 400.0 mg/kg/injection, schedule: Q01DX001 (ip), vehicle: saline, evaluated on day 30): 88, 95, 122 [5 of 6 alive], 125 [5 of 6 alive], 132 [4 of 6 alive], 139, 139 [5 of 6 alive], 177 [5 of 6 alive], 237, 275, 283, 296, 322, 337 [4 of 6 alive], 340, 345, 348, 361, 361 [5 of 6 alive], 370 (6×), 370 [5 of 6 alive], 375 % of control (2×) | T/C (dose: 400.0 mg/kg/injection, schedule: Q01DX001 (ip), vehicle: saline, evaluated on day 35): 432 % of control | T/C (dose: 400.0 mg/kg/injection, schedule: Q01DX001 (ip), vehicle: saline, evaluated on day 60): 409 and 731 % of control | survivor count (dose: 400.0 mg/kg/injection, schedule: Q01DX001 (ip), vehicle: saline): 4 of 6 | survivor count (dose: 400.0 mg/kg/injection, schedule: Q01DX001 (ip), vehicle: water): 8 of 10 | T/C (dose: 500.0 mg/kg/injection, schedule: Q01DX001 (ip), vehicle: saline, evaluated on day 6): 120 % of control | T/C (dose: 500.0 mg/kg/injection, schedule: Q01DX001 (ip), vehicle: saline, evaluated on day 30): 357 and 370 % of control | survivor count (dose: 500.0 mg/kg/injection, schedule: Q01DX001 (ip), vehicle: saline): 2 of 6 and 3 of 6 | survivor count (dose: 500.0 mg/kg/injection, schedule: Q01DX001 (ip), vehicle: water): 2 of 6 and 5 of 6 | T/C (dose: 600.0 mg/kg/injection, schedule: Q01DX001 (ip), vehicle: saline): 131 % of control
